Results are given in words; binding and its absence hold for the method and conditions named. For some of these results: Binding seen in cells or lysates may run through a third protein. Some binding calls cover weakened binding; strength is not graded here. Sequences can lack the tags named with a protein. One block for each binder: values may come before it.
How the values were obtained:
[1] = target: T1, GAL4 DNA-binding domain-fused VIP1ΔN164 (C-terminal region, amino acids 165–341, of VIP1) (Arabidopsis thaliana) (UniProt Q9MA75); test: two-hybrid; S. cerevisiae AH109 co-transformed with pGBKT7-VIP1ΔN164 (GAL4 BD fusion, bait) and pGADT7-Rec constructs (GAL4 AD fusions); growth on SD medium lacking adenine and histidine; BD alone as control
T1 sequence: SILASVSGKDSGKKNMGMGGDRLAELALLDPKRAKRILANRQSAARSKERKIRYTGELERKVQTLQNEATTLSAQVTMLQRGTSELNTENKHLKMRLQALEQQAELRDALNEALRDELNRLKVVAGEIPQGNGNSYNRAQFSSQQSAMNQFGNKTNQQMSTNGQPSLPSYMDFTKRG

[2] = target: T2, VIP1 fused to nYFP or to cYFP (BiFC constructs) (Arabidopsis thaliana) (UniProt Q9MA75); test: split reporter; BiFC: nYFP-fused VIP1 and cYFP-fused proteins co-introduced into onion epidermal cells by particle bombardment; YFP fluorescence by epifluorescence microscopy; nYFP alone and cYFP alone as negative controls
T2 sequence: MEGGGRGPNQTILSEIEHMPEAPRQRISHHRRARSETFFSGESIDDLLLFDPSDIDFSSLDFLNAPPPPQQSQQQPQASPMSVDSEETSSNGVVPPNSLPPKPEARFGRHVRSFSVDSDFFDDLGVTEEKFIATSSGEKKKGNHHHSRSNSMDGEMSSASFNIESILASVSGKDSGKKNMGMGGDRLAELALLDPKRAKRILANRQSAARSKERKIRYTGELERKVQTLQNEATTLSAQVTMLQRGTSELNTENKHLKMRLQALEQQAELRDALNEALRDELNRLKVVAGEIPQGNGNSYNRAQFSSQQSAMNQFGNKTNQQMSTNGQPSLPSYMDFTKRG

- binding [1]: binds
B1: GAL4 activation domain-fused PosF21 (protein, UniProt Q04088 1-398)
chain: MDKEKSPAPPCGGLPPPSPSGRCSAFSEAGPIGHGSDANRMSHDISRMLDNPPKKIGHRRAHSEILTLPDDLSFDSDLGVVGNAADGASFSDETEEDLLSMYLDMDKFNSSATSSAQVGEPSGTAWKNETMMQTGTGSTSNPQNTVNSLGERPRIRHQHSQSMDGSMNINEMLMSGNEDDSAIDAKKSMSATKLAELALIDPKRAKRIWANRQSAARSKERKTRYIFELERKVQTLQTEATTLSAQLTLLQRDTNGLTVENNELKLRLQTMEQQVHLQDELNEALKEEIQHLKVLTGQVAPSALNYGSFGSNQQQFYSNNQSMQTILAAKQFQQLQIHSQKQQQQQQQQQQQHQQQQQQQQQYQFQQQQMQQLMQQRLQQQEQQNGVRLKPSQAQKEN

- binding [2]: binds
B2: cYFP-fused PosF21 (protein, UniProt Q04088 1-398)
chain: B1 chain

- binding [1]: binds
B3: GAL4 activation domain-fused full-length VIP1 (protein, UniProt Q9MA75 1-341)
chain: T2 sequence

- binding [2]: binds
B4: VIP1 fused to nYFP or to cYFP (BiFC constructs) (protein, UniProt Q9MA75 1-341)
chain: T2 sequence
